For 3 molecules, binding results are on record in US20240350586A1.

Sequences of proteins named here, by UniProt entry; tags and fusion partners are left off. A change or cut given only in a name is not applied to a line headed by its entry. Residues count along the entry.
UniProt Q9BXW4: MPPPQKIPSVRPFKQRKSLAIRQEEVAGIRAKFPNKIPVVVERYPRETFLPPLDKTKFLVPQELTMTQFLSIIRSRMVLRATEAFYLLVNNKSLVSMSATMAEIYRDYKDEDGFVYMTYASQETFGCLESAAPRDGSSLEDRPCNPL
T7-LC3C (expressed in cells): residues 1-126 of Q9BXW4

Experiment [1] deals with His-T7-LC3C (purified protein) (UniProt Q9BXW4). Kind of experiment: in vitro pull-down of purified GST-CCT2s and His-T7-LC3C.
Experiment [2] shares this target. In words: pull-down of gel-filtration fraction F17 with His-T7-LC3C on Ni sepharose.
Experiment [3] deals with T7-LC3C (expressed in cells) (UniProt Q9BXW4). In words: Duolink PLA.

These are yes or no findings as the source states them, for the method shown. For part of these data: In cells and extracts the contact can be indirect. Some binding calls cover weakened binding; strength is not graded here. For part of these data: Sequences can lack the tags named with a protein.

B1: GST-HA-CCT2 (purified, wild type) (protein, not shown: a dimerising Fc or GST)
chain: ASLSLAPVNIFKAGADEERAETARLTSFIGAIAIGDLVKSTLGPKGMDKILLSSGRDASLMVTNDGATILKNIGVDNPAAKVLVDMSRVQDDEVGDGTTSVTVLAAELLREAESLIAKKIHPQTIIAGWREATKAAREALLSSAVDHGSDEVKFRQDLMNIAGTTLSSKLLTHHKDHFTKLAVEAVLRLKGSGNLEAIHIIKKLGGSLADSYLDEGFLLDKKIGVNQPKRIENAKILIANTGMDTDKIKIFGSRVRVDSTAKVAEIEHAEKEKMKEKVERILKHGINCFINRQLIYNYPEQLFGAAGVMAIEHADFAGVERLALVTGGEIASTFDHPELVKLGSCKLIEEVMIGEDKLIHFSGVALGEACTIVLRGATQQILDEAERSLHDALCVLAQTVKDSRTVYGGGCSEMLMAHAVTQLANRTPGKEAVAMESYAKALRMLPTIIADNAGYDSADLVAQLRAAHSEGNTTAGLDMREGTIGDMAILGITESFQVKRQVLLSAAEAAEVILRVDNIIKAAPRKRVPDHHPC
In the case of B1, the binding result in experiment [1] was “binds”.

B2: CCT2 in the monomer fraction (F17) of gel-filtered HEK293T cell lysate (protein)
chain: B1 chain
Consider B2, for which the binding entry in experiment [2] was “binds”.

B3: V5-CCT2 (protein)
chain: GKPIPNPLLGLDSTASLSLAPVNIFKAGADEERAETARLTSFIGAIAIGDLVKSTLGPKGMDKILLSSGRDASLMVTNDGATILKNIGVDNPAAKVLVDMSRVQDDEVGDGTTSVTVLAAELLREAESLIAKKIHPQTIIAGWREATKAAREALLSSAVDHGSDEVKFRQDLMNIAGTTLSSKLLTHHKDHFTKLAVEAVLRLKGSGNLEAIHIIKKLGGSLADSYLDEGFLLDKKIGVNQPKRIENAKILIANTGMDTDKIKIFGSRVRVDSTAKVAEIEHAEKEKMKEKVERILKHGINCFINRQLIYNYPEQLFGAAGVMAIEHADFAGVERLALVTGGEIASTFDHPELVKLGSCKLIEEVMIGEDKLIHFSGVALGEACTIVLRGATQQILDEAERSLHDALCVLAQTVKDSRTVYGGGCSEMLMAHAVTQLANRTPGKEAVAMESYAKALRMLPTIIADNAGYDSADLVAQLRAAHSEGNTTAGLDMREGTIGDMAILGITESFQVKRQVLLSAAEAAEVILRVDNIIKAAPRKRVPDHHPC
On to B3, for which the binding entry in experiment [3] is given as “binds”.
